Experimental data from PubChem BioAssay AID493014 (National Center for Advancing Translational Sciences (NCATS), 2011).
This is one part of the list. The main result of the screen is listed elsewhere. These columns were measured beside it and carry no call. The list favours compounds with an active or inconclusive main result. Words in brackets tell the shape of the fitted curve; partial curves, single points and poor fits give uncertain potencies.

Test: qHTS Assay to Find Inhibitors of Chronic Active B-Cell Receptor Signaling
Settings: ABC-DLBCL IkBa-CBG/CBR reporter, luminescence ratio (green luciferase fused to IkBa over red control in TMD8 lymphoma cells), 4 h
In short: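 TMD8 ABC-DLBCL cells carrying doxycycline-inducible green luciferase fused to IkappaBalpha plus unfused red luciferase were exposed to compounds (up to 46 uM) for 4 hrs at 37C. Activity came from the overlap-corrected green/red luminescence ratio.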

[1] = measured here: CBR red luminescence, cell number
[2] = measured here: IkBa-CBG green luminescence

Compound | AC50 [1] | AC50 [2]
CCOC(=O)N1CCC(NC(=O)c2ccccc2C(=O)O)CC1 | 35.5 µM [rising, single point] | 
Cc1cc(=O)oc2cc(NC(=O)c3cccc(F)c3)ccc12 | 0.1 µM [rising, full curve, poor fit] | 
COc1cccc(-c2nnc(SCC(=O)Nc3ccc4c(c3)OCCO4)n2Cc2ccco2)c1 | 32.6 µM [falling, partial curve, poor fit] | 
COc1cc(C2C3C(=O)N(Cc4ccccc4)C(=O)C3ON2c2ccccc2)cc(OC)c1OC (stereo not given) | 11.2 µM [rising, partial curve, poor fit] | 
CC(=O)Nc1cccc(Oc2nc(-c3ccccn3)nc3ccccc23)c1 | 35.5 µM [falling, partial curve, poor fit] | 
Cc1nc(NCCc2ccccc2)c2nnn(Cc3ccccc3)c2n1 | 10 µM [rising, partial curve] | 
O=C(c1ccc(F)cc1)N1CCC(c2ccccc2)C1 (stereo not given) | 14.1 µM [falling, single point] | 
O=c1c2ccccc2oc2nc(-c3cccs3)n(CCc3ccccc3)c(=O)c12 | 1.64 µM [falling, full curve, poor fit] | 
NC(=O)c1ccc(NC(=O)CS(=O)(=O)c2cn(CC(=O)N3CCCC3)c3ccccc23)cc1 | 1.58 µM [rising, partial curve, poor fit] | 
Cc1sc2c(c1C)C(=O)NC(c1cccc(O)c1)N2 (stereo not given) | 12.6 µM [falling, partial curve] | 
CC1CCCCN1S(=O)(=O)c1ccc(S(=O)(=O)N(Cc2ccccc2)Cc2ccco2)cc1 (stereo not given) | 9.2 µM [rising, partial curve] | 
COc1cc(OC)cc(C(=O)Nc2ccc3c(c2)N(C2CCCC2)C(=O)c2ccccc2S3)c1 | 12.6 µM [falling, partial curve, poor fit] | 
Cc1nc(Nc2nc(CSc3nc4ccccc4[nH]3)cc(=O)[nH]2)nc2ccccc12 | 13 µM [falling, partial curve, poor fit] | 
CC(c1ccccc1)N1C(=O)/C(=C/c2ccncc2)SC1=S (stereo not given) | 12.6 µM [falling, single point] | 
O=C(O)CCc1ccc(-c2cccs2)n1NC(=O)c1ccccc1Br | 4.61 µM [falling, partial curve, poor fit] | 
CC(=O)c1cccc(NC(=O)N2CCCC2C(=O)NCc2ccc(C)cc2)c1 (stereo not given) | 25.9 µM [rising, single point] | 
COc1ccc(OC)c(C2(O)CSC(=Nc3cccnc3)N2Cc2ccco2)c1 (stereo not given) | 35.5 µM [falling, partial curve, poor fit] | 
COc1ccc(/C=C2\SC(=S)N(CCC(=O)NC3C=CS(=O)(=O)C3)C2=O)cc1 (stereo not given) | 0.355 µM [falling, full curve] | 
Cc1ccc(-c2nnc(SCC(C)C)n2C)cc1 | 2.82 µM [rising, partial curve, poor fit] | 
Nc1ccc2c(c1)OCCOCCOCCOCCOCCO2 | 5.62 µM [falling, single point] | 
COc1ccc(OC)c(/C=N/NC(=O)c2cc3c(OC)cc(OC)cc3[nH]2)c1 | 17.8 µM [falling, partial curve, poor fit] | 
O=C(COc1cccnc1[N+](=O)[O-])c1c[nH]c2ccccc12 | 11.2 µM [falling, partial curve, poor fit] | 

Structures shown so far that have a halogen (3):
Compound | AC50 [1] | AC50 [2]
Cc1cc(=O)oc2cc(NC(=O)c3cccc(F)c3)ccc12 | 0.1 µM [rising, full curve, poor fit] | 
O=C(c1ccc(F)cc1)N1CCC(c2ccccc2)C1 (stereo not given) | 14.1 µM [falling, single point] | 
O=C(O)CCc1ccc(-c2cccs2)n1NC(=O)c1ccccc1Br | 4.61 µM [falling, partial curve, poor fit] | 

Continuation.

Compound | AC50 [1] | AC50 [2]
C/C(=N\NC(=O)c1ccc(F)cc1)c1cccc(NC(=O)c2ccco2)c1 | 35.5 µM [falling, single point] | 
O=C(Nc1ccc(N2CCC(c3ccccc3)C2)c(C(=O)O)c1)c1ccc(Cl)cc1 (stereo not given) | 6.31 µM [rising, full curve, poor fit] | 35.5 µM [falling, single point]
c1ccc(N2CCN(c3cnc4ccccc4n3)CC2)cc1 | 16.4 µM [falling, single point] | 
CCOc1ccc(NC(=O)N(c2ccccc2)c2ccccc2)cc1 | 12.6 µM [rising, single point] | 
Cc1cccc(/C=C(\C#N)C(=O)Nc2ccccn2)c1 | 3.55 µM [rising, single point] | 
CC1CCC(NC(=O)CC2Oc3ccccc3NC2=O)CC1 (stereo not given) | 23.1 µM [falling, partial curve, poor fit] | 
CCC(=O)Oc1ccc(C/C(=N\O)c2ccc(O)cc2O)o1 | 16.4 µM [falling, single point] | 
CCn1c(=O)c(C(=O)Nc2ccccc2F)c(O)c2ccccc21 | 0.501 µM [falling, full curve] | 
Cc1nnc2sc(SCC(=O)N3CCC(C)CC3)nn2c1=O | 12.6 µM [falling, partial curve, poor fit] | 
Cc1ccncc1C(N)=O | 0.891 µM [rising, full curve, poor fit] | 
Cc1cc(C)n(-c2ccc(C(=O)NC(C)C)cc2)n1 | 6.31 µM [rising, partial curve] | 
COCCCNC(=O)CCc1nc(-c2ccccc2)no1 | 29.1 µM [rising, single point] | 
COCCn1c(COc2ccc(OC)cc2)nc2ccccc21 | 1.3 µM [rising, full curve, poor fit] | 
O=C(Nc1cnn(Cc2ccc(Cl)c(Cl)c2)c1)c1nc2ncccn2n1 | 8.91 µM [falling, partial curve, poor fit] | 
O=NNc1nc2ccccc2n1Cc1ccccc1 | 10 µM [falling, partial curve, poor fit] | 
CCOc1ccc(NC(=S)N(CCc2c(C)[nH]c3ccccc23)Cc2cccnc2)cc1 |  | 18.4 µM [falling, partial curve, poor fit]
CCc1ccc(Nc2n[n+](-c3ccccc3)c(-c3ccc(OCc4ccccc4)cc3)s2)cc1 | 35.5 µM [falling, single point] | 
CSc1ncccc1C(=O)OCC(=O)NCCc1ccccc1 | 7.31 µM [rising, partial curve, poor fit] | 
CC(Sc1nc2ccc(Br)cc2[nH]1)C(=O)O (stereo not given) | 10.3 µM [rising, single point] | 
O=C(NCCCCCCNC(=O)c1ccc(Br)s1)c1ccc(Br)s1 | 20.6 µM [rising, partial curve] | 
CS(=O)(=O)c1ccc2nc(NC(=O)CCNC(=O)c3ccc(Cl)cc3)sc2c1 | 2.91 µM [rising, full curve] | 
O=S(=O)(c1ccc2c(c1)OCCO2)N1CCN(S(=O)(=O)c2ccc3c(c2)OCCO3)CC1 | 32.6 µM [falling, single point] | 

Compound | AC50 [1] | AC50 [2]
CCN1CCN(c2ccc(NC(=O)c3cc4ccccc4cc3OC)cc2C)CC1 | 32.6 µM [falling, single point] | 
COCCNCc1ccccc1[N+](=O)[O-] | 0.00517 µM [falling, full curve, poor fit] | 
O=C(O)C1CCN(C(=O)c2ccc3c(c2)OCO3)CC1 | 35.5 µM [rising, single point] | 
CC(C(=O)Nc1ccc2c(c1)OCO2)c1ccc([N+](=O)[O-])cc1 (stereo not given) | 0.251 µM [falling, full curve, poor fit] | 
O=C(NNc1nc(-c2ccccc2)cs1)c1ccc(F)cc1 | 20 µM [falling, single point] | 
CN1C(=O)[C@H](Cc2ccc([N+](=O)[O-])cc2)NC1=S | 0.708 µM [falling, full curve, poor fit] | 
CCn1c(CSc2nc(C)cc(C)n2)nnc1SCC(=O)Nc1cccc2ccccc12 | 29.1 µM [falling, single point] | 
O=C(CN(c1ccccc1)S(=O)(=O)c1ccccc1[N+](=O)[O-])Nc1ccccc1C(=O)N1CCOCC1 | 35.5 µM [falling, partial curve, poor fit] | 
Cc1ccc(NC(=O)c2cc(S(=O)(=O)N3CCc4ccccc43)cn2C)cc1C | 0.282 µM [falling, partial curve, poor fit] | 
Nc1nc(N)nc(-c2cc([N+](=O)[O-])ccc2O)n1 | 2.91 µM [falling, full curve] | 
O=C(O)c1ccc(N/N=C/c2ccc(OC(=O)c3cccc(Cl)c3)cc2)cc1 | 0.0891 µM [falling, full curve, poor fit] | 
O=C(O)CC1Sc2ccccc2NC1=O (stereo not given) | 35.5 µM [rising, single point] | 
Cc1sc2nc(CN3CCCCC3)nc(Cl)c2c1C | 9.2 µM [falling, partial curve, poor fit] | 
Cc1ccc(C)c(SCc2nc3sc(C(=O)O)c(C)c3c(=O)[nH]2)c1 | 0.631 µM [falling, full curve] | 
CCCN1C(=O)c2ccccc2NC1c1ccc(Br)cc1 (stereo not given) | 12.6 µM [falling, single point] | 
CCOC(=O)C1CCN(C(=O)c2ccc(CNS(=O)(=O)c3ccc(C)cc3)cc2)CC1 | 35.5 µM [rising, partial curve, poor fit] | 
N#Cc1c(NC(=O)CSc2nc(-c3ccco3)cc(C(F)(F)F)n2)sc2c1CCCC2 | 0.291 µM [rising, full curve, poor fit] | 
COC(=O)CSc1ncccc1-c1nc2ccccc2[nH]1 | 0.0146 µM [falling, full curve, poor fit] | 
COc1ccc(/C=C(/NC(=O)c2ccccc2)C(=O)N/N=C/c2sccc2C)cc1 | 25.9 µM [rising, single point] | 
COc1ccc(C)cc1S(=O)(=O)N(C)CC(=O)Nc1ccc2c(c1)OCCO2 | 29.1 µM [falling, single point] | 

Ordered by length of the SMILES (smallest number first): three of the compounds above.
Compound | AC50 [1] | AC50 [2]
COC(=O)CSc1ncccc1-c1nc2ccccc2[nH]1 | 0.0146 µM [falling, full curve, poor fit] | 
CCN1CCN(c2ccc(NC(=O)c3cc4ccccc4cc3OC)cc2C)CC1 | 32.6 µM [falling, single point] | 
Cc1ccc(C)c(SCc2nc3sc(C(=O)O)c(C)c3c(=O)[nH]2)c1 | 0.631 µM [falling, full curve] | 
